Record: PubChem BioAssay AID743454 (Peter MacCallum Cancer Centre, 2014)
Shown is one part, drawn at random, of about 18,000 deposited reagents. 450 of all reagents (2.5%) count as active. 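Single biological run; no consistent viability z cut-off exists, so the class columns, not z-scores, define the calls.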

Aim: 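Search for knock-downs that restore vorinostat killing in resistant colon cancer cells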 (primary screen)
Cell system: human HCT116-VR colon cancer cells, selected for vorinostat resistance
Reagent: siRNA pool against human genes, 40 nM siRNA pool
Time to read-out: vorinostat for 24 h, read-out about 72 h after transfection
Challenge: vorinostat at 2.5 µM final
Read-out: 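Two measures, CellTiter-Fluor viability and luminescent caspase 3/7 activity, each as fold change against same-plate mock wells, mean of duplicates, then screen-wide robust z-score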
Scale: viability robust z-score: higher = more viable cells than screen typical; caspase robust z-score: higher = more caspase 3/7 activity than screen typical
Call rule: 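Hits are knock-downs in viability class RV1/RV2 or caspase class CA1/CA2, excluding ones that killed cells in the no-drug cell-count arm; hits then retested with single siRNAs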

gene | viability hit class | caspase hit class | viability robust z-score | caspase robust z-score | Call
DZIP1 (DAZ interacting zinc finger protein 1) | no change | no change | -0.44 | -1.12 | inactive
OR51F2 (olfactory receptor family 51 subfamily F member 2) | no change | no change | -1.38 | 0.1 | inactive
HEPACAM2 (HEPACAM family member 2) | no change | no change | -0.7 | 1.04 | inactive
TPTE2 | no change | no change | 0.49 | 1.92 | inactive
XIRP2 (xin actin binding repeat containing 2) | no change | no change | 1.28 | 0.53 | inactive
H2AC25 (H2A clustered histone 25) | no change | no change | 0.09 | -0.95 | inactive
H1-4 (H1.4 linker histone, cluster member) | no change | no change | -0.85 | 0.22 | inactive
MAF1 (MAF1 negative regulator of RNA polymerase III) | no change | no change | 1.13 | 0.95 | inactive
CDC5L (cell division cycle 5 like) | no change | no change | -3.07 | 3.16 | inactive
SPATS2L (spermatogenesis associated serine rich 2 like) | no change | no change | 0.4 | -0.5 | inactive
ZBED3 (zinc finger BED-type containing 3) | no change | no change | -1.04 | -0.42 | inactive
GTPBP4 (GTP binding protein 4) | no change | no change | -1.81 | -0.78 | inactive
GRK3 (G protein-coupled receptor kinase 3) | no change | no change | 0.64 | -0.7 | inactive
OPRK1 (opioid receptor kappa 1) | no change | no change | -1.54 | -0.32 | inactive
PIGL (phosphatidylinositol glycan anchor biosynthesis class L) | no change | no change | -1.4 | 1.42 | inactive
CD8A (CD8 subunit alpha) | no change | no change | 0.74 | 3.68 | inactive
DRAM2 (DNA damage regulated autophagy modulator 2) | no change | no change | -1.56 | 0.16 | inactive
SLC22A4 | no change | no change | 0.19 | -1.04 | inactive
TAF13 (TATA-box binding protein associated factor 13) | no change | no change | 0.74 | 0.82 | inactive
SERPINA12 (serpin family A member 12) | no change | no change | 0.56 | -0.04 | inactive
GIMAP1 (GTPase, IMAP family member 1) | no change | no change | -0.01 | 0.3 | inactive
POLD3 (DNA polymerase delta 3, accessory subunit) | no change | no change | -0.52 | -0.42 | inactive
MSH3 (mutS homolog 3) | no change | no change | -1.68 | 1.34 | inactive
RAB11FIP5 (RAB11 family interacting protein 5) | no change | no change | -2.31 | 0.93 | inactive
SOD2 (superoxide dismutase 2) | no change | no change | 0.28 | 0.12 | inactive
C3orf70 (chromosome 3 open reading frame 70) | no change | no change | 0.53 | -0.24 | inactive
ZMIZ2 (zinc finger MIZ-type containing 2) | no change | no change | -0.96 | -0.65 | inactive
ATP10B (ATPase phospholipid transporting 10B (putative)) | no change | no change | 0.92 | -0.52 | inactive
IFNA5 (interferon alpha 5) | no change | no change | -0.7 | -0.38 | inactive
TXNRD1 (thioredoxin reductase 1) | no change | no change | 0.48 | 0.9 | inactive
GAL3ST4 (galactose-3-O-sulfotransferase 4) | no change | no change | -0.15 | 1.68 | inactive
AIDA (axin interactor, dorsalization associated) | no change | no change | 1.14 | -0.5 | inactive
SERPINA6 (serpin family A member 6) | no change | no change | 0.44 | -0.16 | inactive
VANGL1 (VANGL planar cell polarity protein 1) | no change | no change | 1.27 | -1.02 | inactive
CCDC34 (coiled-coil domain containing 34) | no change | no change | -2.63 | 0.58 | inactive
ADCK1 (aarF domain containing kinase 1) | no change | no change | 0.23 | 0.27 | inactive
GMEB2 (glucocorticoid modulatory element binding protein 2) | no change | no change | 0.99 | 0.04 | inactive
THAP8 (THAP domain containing 8) | no change | no change | -1.02 | 0.42 | inactive
ACTR2 (actin related protein 2) | no change | no change | 1.25 | -0.32 | inactive
BANP (BTG3 associated nuclear protein) | no change | no change | 0.72 | 2.11 | inactive
IRS1 (insulin receptor substrate 1) | no change | no change | -1.74 | 2.77 | inactive
SNX3 (sorting nexin 3) | no change | no change | 2.02 | 0.24 | inactive
CAMSAP3 | no change | no change | 0.19 | -0.46 | inactive
TRIM68 (tripartite motif containing 68) | no change | no change | 0.31 | -0.52 | inactive
FCHO2 (FCH and mu domain containing endocytic adaptor 2) | no change | no change | -0.3 | -0.62 | inactive
DTWD1 (DTW motif tRNA-uridine aminocarboxypropyltransferase 1) | no change | no change | -0.16 | -0.64 | inactive
POLA2 (DNA polymerase alpha 2, accessory subunit) | no change | no change | -1.2 | -0.03 | inactive
SPMIP6 (sperm microtubule inner protein 6) | no change | no change | -0.15 | -0.15 | inactive
PLSCR3 (phospholipid scramblase 3) | no change | no change | 0.09 | 1.07 | inactive
PCBD2 (pterin-4 alpha-carbinolamine dehydratase 2) | no change | no change | -0.5 | -1.02 | inactive
ITIH4 (inter-alpha-trypsin inhibitor heavy chain 4) | no change | no change | -2.23 | 0.5 | inactive
PLA2G5 (phospholipase A2 group V) | no change | no change | 0.02 | 2.66 | inactive
CHPF (chondroitin polymerizing factor) | no change | no change | 0.98 | 0.02 | inactive
SYDE1 (synapse defective Rho GTPase activating protein 1) | no change | no change | 0.31 | -0.02 | inactive
SEC24D (SEC24 homolog D, COPII component) | no change | no change | 1.02 | -0.87 | inactive
EIF3A (eukaryotic translation initiation factor 3 subunit A) | no change | no change | -3 | -1.09 | inactive
SLC30A8 | no change | no change | -2.21 | 0.08 | inactive

In a second layout: results already given.
gene,viability hit class,caspase hit class,viability robust z-score,caspase robust z-score,Call
SPATS2L (spermatogenesis associated serine rich 2 like),no change,no change,0.4,-0.5,inactive
ZBED3 (zinc finger BED-type containing 3),no change,no change,-1.04,-0.42,inactive
GTPBP4 (GTP binding protein 4),no change,no change,-1.81,-0.78,inactive
GRK3 (G protein-coupled receptor kinase 3),no change,no change,0.64,-0.7,inactive
OPRK1 (opioid receptor kappa 1),no change,no change,-1.54,-0.32,inactive
PIGL (phosphatidylinositol glycan anchor biosynthesis class L),no change,no change,-1.4,1.42,inactive
